Measured values as given in PubChem BioAssay AID192 (DTP/NCI, 2004).
The list is a part of this screen's results and no random one: it covers a few groups of compounds. Not every dose and run of a compound is shown. T/C is the treated group as % of the vehicle group. Some entries give survivors of the animals treated and no T/C: the source files T/C as zero there, which appears to mark a toxic dose or a test without result, not a measured value. Some doses without a T/C left all or most animals alive at the check, yet need not have been tolerated: survival well below the control is almost never listed, so the zero probably covers shortened survival too. Survivors were counted at the toxicity check, usually on the fifth day, unless a day is given; later deaths do not show. Schedule codes are those of the source, read here as Q, the interval in days (D) or hours (H), X, the number of doses. Where survival is the endpoint, the PubChem record calls one and a half times the control and up active, and a quarter to a half above the control has no call in these data; cut-offs in other NCI protocols can differ. Some entries show no survivor count and are marked so; the dose need not have been tolerated. Some entries were tested several times; the values are given in rising order. Counts like (3×) say how often a value occurs here.

Test system: BDF1 mice, B16 melanoma ip, median survival T/C
Test: NCI In Vivo Anticancer Drug Screen. Data for tumor model B16 Melanoma (intraperitoneal) in B6D2F1 (BDF1) mice
Details: T/C endpoint: median survival time, higher T/C = longer survival
Method in brief: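 The ratio T/C compares compound-treated mice with vehicle-treated controls, using survival or tumor size as the endpoint in a transplantable tumor model.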

[1] = dose: 12.5 mg/kg/injection, schedule: Q01DX009 (ip), vehicle: Klucel (hydroxypropylcellulose) (HPC)
[2] = dose: 25.0 mg/kg/injection, schedule: Q01DX009 (ip), vehicle: Klucel (hydroxypropylcellulose) (HPC)
[3] = dose: 50.0 mg/kg/injection, schedule: Q01DX009 (ip), vehicle: Klucel (hydroxypropylcellulose) (HPC)
[4] = dose: 100.0 mg/kg/injection, schedule: Q01DX009 (ip), vehicle: Klucel (hydroxypropylcellulose) (HPC)
[5] = dose: 6.25 mg/kg/injection, schedule: Q01DX009 (ip), vehicle: Klucel (hydroxypropylcellulose) (HPC)
[6] = dose: 0.78 mg/kg/injection, schedule: Q01DX009 (ip), vehicle: saline
[7] = dose: 1.56 mg/kg/injection, schedule: Q01DX009 (ip), vehicle: saline
[8] = dose: 3.12 mg/kg/injection, schedule: Q01DX009 (ip), vehicle: saline
[9] = dose: 6.25 mg/kg/injection, schedule: Q01DX009 (ip), vehicle: saline

O=C(O)CCCCc1ccc(N(CCCl)CCCl)cc1
T/C (dose: 3.13 mg/kg/injection, schedule: Q01DX009 (ip), vehicle: saline with Tween-80): 110 % of control [survivor count not shown]
T/C (dose: 6.25 mg/kg/injection, schedule: Q01DX009 (ip), vehicle: saline with Tween-80): 100 % of control [survivor count not shown]
T/C (dose: 6.25 mg/kg/injection, schedule: Q04DX003 (ip), vehicle: saline with Tween-80): 113 % of control [survivor count not shown]
T/C (dose: 12.5 mg/kg/injection, schedule: Q01DX009 (ip), vehicle: saline with Tween-80): 110 [survivor count not shown] and 115 % of control [survivor count not shown]
T/C (dose: 12.5 mg/kg/injection, schedule: Q04DX003 (ip), vehicle: saline with Tween-80): 105 % of control [survivor count not shown]
T/C (dose: 25.0 mg/kg/injection, schedule: Q04DX003 (ip), vehicle: saline with Tween-80): 97 [survivor count not shown] and 121 % of control [survivor count not shown]

ClCCN(CCCl)c1ccc(Oc2ccccc2)cc1
T/C [1]: 98 % of control [survivor count not shown]
T/C [2]: 102 % of control [survivor count not shown]
T/C [3]: 98 % of control [survivor count not shown]
T/C [4]: 114 % of control [survivor count not shown]
T/C (dose: 200.0 mg/kg/injection, schedule: Q01DX009 (ip), vehicle: Klucel (hydroxypropylcellulose) (HPC)): 139 % of control [survivor count not shown]
T/C (dose: 400.0 mg/kg/injection, schedule: Q01DX009 (ip), vehicle: Klucel (hydroxypropylcellulose) (HPC)): 108 % of control [survivor count not shown]

CCOc1ccc(N(CCCl)CCCl)cc1
T/C (dose: 3.12 mg/kg/injection, schedule: Q01DX009 (ip), vehicle: Klucel (hydroxypropylcellulose) (HPC)): 122 % of control
T/C [5]: 134 % of control
T/C [1]: 146 % of control
T/C [2]: 172 % of control
T/C [3]: 197 % of control
survivor count [4]: 10 of 10

Nc1cc(N)cc(N(CCCl)CCCl)c1
T/C (dose: 0.78 mg/kg/injection, schedule: Q01DX009 (ip), vehicle: Klucel (hydroxypropylcellulose) (HPC)): 97 % of control [survivor count not shown]
T/C (dose: 1.56 mg/kg/injection, schedule: Q01DX009 (ip), vehicle: Klucel (hydroxypropylcellulose) (HPC)): 98 % of control [survivor count not shown]
T/C (dose: 3.13 mg/kg/injection, schedule: Q01DX009 (ip), vehicle: Klucel (hydroxypropylcellulose) (HPC)): 102 % of control [survivor count not shown]
T/C [5]: 131 % of control [survivor count not shown]

C[N+](CCCl)(CCCl)Cc1ccc([N+](=O)[O-])cc1
T/C [6]: 109 % of control [survivor count not shown]
T/C [7]: 115 % of control [survivor count not shown]
T/C [8]: 109 [survivor count not shown] and 111 % of control [survivor count not shown]
T/C [9]: 115 [survivor count not shown], 126 [survivor count not shown], 143 % of control [survivor count not shown]
T/C (dose: 12.5 mg/kg/injection, schedule: Q01DX009 (ip), vehicle: saline): 118 % of control [survivor count not shown]

NS(=O)(=O)c1ccc(N(CCCl)CCCl)cc1
T/C [1]: 90 % of control [survivor count not shown]
T/C (dose: 25.0 mg/kg/injection, schedule: Q01DX009 (ip), vehicle: Klucel (hydroxypropylcellulose) (HPC), evaluated on day 60): 97 % of control
T/C (dose: 25.0 mg/kg/injection, schedule: Q01DX009 (ip), vehicle: Klucel (hydroxypropylcellulose) (HPC), evaluation day not shown): 93 % of control [survivor count not shown]
T/C (dose: 50.0 mg/kg/injection, schedule: Q01DX009 (ip), vehicle: Klucel (hydroxypropylcellulose) (HPC), evaluated on day 60): 98 % of control
T/C (dose: 50.0 mg/kg/injection, schedule: Q01DX009 (ip), vehicle: Klucel (hydroxypropylcellulose) (HPC), evaluation day not shown): 96 % of control [survivor count not shown]
T/C [4]: 101 % of control
T/C (dose: 200.0 mg/kg/injection, schedule: Q01DX009 (ip), vehicle: Klucel (hydroxypropylcellulose) (HPC), evaluated on day 60): 92 % of control
T/C (dose: 200.0 mg/kg/injection, schedule: Q01DX009 (ip), vehicle: Klucel (hydroxypropylcellulose) (HPC), evaluation day not shown): 92 % of control [survivor count not shown]

CCC1(CC)NC(=O)N(CCN(CCCl)CCCl)C1=O
T/C (dose: 0.75 mg/kg/injection, schedule: Q01DX009 (ip), vehicle: saline): 109 % of control [survivor count not shown]
T/C [6]: 101 % of control [survivor count not shown]
T/C (dose: 1.5 mg/kg/injection, schedule: Q01DX009 (ip), vehicle: saline): 102 % of control [survivor count not shown]
T/C [7]: 90 [survivor count not shown], 114 [survivor count not shown] (2×), 136 % of control [survivor count not shown]
T/C (dose: 3.0 mg/kg/injection, schedule: Q01DX009 (ip), vehicle: saline): 114 % of control [survivor count not shown]
T/C [8]: 119 [survivor count not shown], 134 [survivor count not shown], 135 [survivor count not shown], 163 % of control [survivor count not shown]
T/C (dose: 6.0 mg/kg/injection, schedule: Q01DX009 (ip), vehicle: saline): 127 % of control [survivor count not shown]
T/C [9]: 107 [survivor count not shown], 134 [survivor count not shown], 161 [survivor count not shown], 162 % of control [survivor count not shown]

Cc1cccc(CN(CCCl)CCCl)c1
T/C (dose: 2.5 mg/kg/injection, schedule: Q01DX009 (ip), vehicle: saline): 90 % of control [survivor count not shown]
T/C (dose: 5.0 mg/kg/injection, schedule: Q01DX009 (ip), vehicle: saline): 91 % of control [survivor count not shown]
T/C (dose: 10.0 mg/kg/injection, schedule: Q01DX009 (ip), vehicle: saline): 90 % of control [survivor count not shown]
T/C (dose: 20.0 mg/kg/injection, schedule: Q01DX009 (ip), vehicle: saline): 91 % of control [survivor count not shown]
